Here are results for two molecules from paper PMC5514062.

No constants are given. Whether binding was seen depends on the method and setting. In cells and extracts the contact can be indirect. For part of these data: A result given as binding can be weak or reduced; the word gives no strength.

Assay [1] deals with Yotiao (mouse (endogenous in heart)). Kind of assay: co-IP; mouse heart; Supplemental Fig. S4; which protein was precipitated is not given.
Assay [2] has the same target. Kind of assay: co-IP; WT and AC9-/- mouse heart extracts immunoprecipitated with pre-immune or anti-Yotiao, western blot with anti-AC9. (Immunoblotting shows a protein as a band on a membrane.)
Assay [3] shares this target. The experiment in a line: co-IP; IP-AC assay: WT or AC9-/- mouse heart extracts (also SAN, LV, RA homogenates) immunoprecipitated with anti-Yotiao or anti-Hsp20 (pre-immune or IgG control); associated AC activity stimulated with 300 nM Gαs and measured.

B1: heat shock protein 20 (protein, UniProt Q5EBG6 1-162)
chain: MEIPVPVQPSWLRRASAPLPGFSAPGRLFDQRFGEGLLEAELASLCPAAIAPYYLRAPSVALPTAQVSTDSGYFSVLLDVKHFLPEEISVKVVDDHVEVHARHEERPDEHGFIAREFHRRYRLPPGVDPAAVTSALSPEGVLSIQATPASAQAQLPSPPAAK
Turning to B1, the binding result in assay [1] is reported as “no binding”.

B2: Adenylyl cyclase type 9 (enzyme, UniProt P51830 1-1353)
chain: MASSPHQQLLHHHSTEVSCDSSGDSNSVRVKINPKQLSSNTHPKHCKYSISSSCSSSGDSGGLPRRVGGGGRLRRQKKLPQLFERASSRWWDPKFDSMNLEEACLERCFPQTQRRFRYALFYVGFACLLWSIYFAVHMKSKVIVMVVPALCFLVVCVGFFLFTFTKLYARHYAWTSLALTLLVFALTLAAQFQVWTPLSGRVDSSNHTLTATPADTCLSQVGSFSICIEVLLLLYTVMQLPLYLSLFLGVVYSVLFETFGYHFRNEDCYPSPGPGALHWELLSRALLHVCIHAIGIHLFVMSQVRSRSTFLKVGQSIMHGKDLEVEKALKERMIHSVMPRIIADDLMKQGDEESENSVKRHATSSPKNRKKKSSIQKAPIAFRPFKMQQIEEVSILFADIVGFTKMSANKSAHALVGLLNDLFGRFDRLCEQTKCEKISTLGDCYYCVAGCPEPRADHAYCCIEMGLGMIKAIEQFCQEKKEMVNMRVGVHTGTVLCGILGMRRFKFDVWSNDVNLANLMEQLGVAGKVHISEATAKYLDDRYEMEDGRVIERLGQSVVADQLKGLKTYLISGQRAKESHCSCAEALLSGFEVIDDSRESSGPRGQGTASPGSVSDLAQTVKTFDNLKTCPSCGITFAPKSEAGAEGGTVQNGCQDEPKTSTKASGGPNSKTQNGLLSPPAEEKLTNSQTSLCEILQEKGRWAGVSLDQSALLPLRFKNIREKTDAHFVDVIKEDSLMKDYFFKPPINQFSLNFLDQELERSYRTSYQEEVIKNSPVKTFASATFSSLLDVFLSTTVFLILSITCFLKYGATATPPPPAALAVFGADLLLEVLSLIVSIRMVFFLEDVMTCTKWLLEWIAGWLPRHCIGAILVSLPALAVYSHITSEFETNIHVTMFTGSAVLVAVVHYCNFCQLSSWMRSSLATIVGAGLLLLLHISLCQDSSIVMSPLDSAQNFSAQRNPCNSSVLQDGRRPASLIGKELILTFFLLLLLVWFLNREFEVSYRLHYHGDVEADLHRTKIQSMRDQADWLLRNIIPYHVAEQLKVSQTYSKNHDSGGVIFASIVNFSEFYEENYEGGKECYRVLNELIGDFDELLSKPDYNSIEKIKTIGATYMAASGLNTAQCQEGGHPQEHLRILFEFAKEMMRVVDDFNNNMLWFNFKLRVGFNHGPLTAGVIGTTKLLYDIWGDTVNIASRMDTTGVECRIQVSEESYRVLSKMGYDFDYRGTVNVKGKGQMKTYLYPKCTDNGVVPQHQLSISPDIRVQVDGSIGRSPTDEIANLVPSVQYSDKASLGSDDSTQAKEARLSSKRSWREPVKAEERFPFGKAIEKDSCEDIGVEEASELSKLNVSKSV
B2: the binding result in assay [2] and in assay [3] was “binds” throughout.
